Test results published in PMC7113292.
No constants are given. Whether binding was seen depends on the method and setting. In cells and extracts the contact can be indirect. Some binding calls cover weakened binding; strength is not graded here. Tags and fused reporters may be left off the sequences shown.

Chains of the proteins cited; added tags and fusions are not shown. Lines headed by an entry give the natural chain unless they say otherwise; changes in a name come on top. Residues count along the entry.
UniProt P01106: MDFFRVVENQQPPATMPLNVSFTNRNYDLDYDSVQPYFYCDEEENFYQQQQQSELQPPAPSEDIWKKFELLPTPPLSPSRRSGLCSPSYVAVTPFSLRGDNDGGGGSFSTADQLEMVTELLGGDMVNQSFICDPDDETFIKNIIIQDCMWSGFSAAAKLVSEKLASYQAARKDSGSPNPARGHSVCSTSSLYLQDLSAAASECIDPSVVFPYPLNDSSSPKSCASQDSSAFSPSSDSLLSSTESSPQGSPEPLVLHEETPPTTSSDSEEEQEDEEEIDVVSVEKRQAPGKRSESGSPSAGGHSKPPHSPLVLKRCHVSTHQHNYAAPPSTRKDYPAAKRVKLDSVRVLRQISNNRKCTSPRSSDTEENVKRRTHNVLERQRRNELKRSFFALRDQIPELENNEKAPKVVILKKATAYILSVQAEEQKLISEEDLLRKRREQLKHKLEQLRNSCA
Flag-c-Myc: residues 16-454 of P01106
Flag-c-Myc ΔC (1-355): residues 16-370 of P01106
Flag-c-Myc ΔN (144-439): residues 159-454 of P01106
UniProt P61244: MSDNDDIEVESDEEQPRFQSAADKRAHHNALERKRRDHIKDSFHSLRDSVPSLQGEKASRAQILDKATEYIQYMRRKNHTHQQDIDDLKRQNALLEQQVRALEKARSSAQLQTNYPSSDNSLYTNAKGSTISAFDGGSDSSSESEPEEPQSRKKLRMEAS
UniProt Q7Z6Z7: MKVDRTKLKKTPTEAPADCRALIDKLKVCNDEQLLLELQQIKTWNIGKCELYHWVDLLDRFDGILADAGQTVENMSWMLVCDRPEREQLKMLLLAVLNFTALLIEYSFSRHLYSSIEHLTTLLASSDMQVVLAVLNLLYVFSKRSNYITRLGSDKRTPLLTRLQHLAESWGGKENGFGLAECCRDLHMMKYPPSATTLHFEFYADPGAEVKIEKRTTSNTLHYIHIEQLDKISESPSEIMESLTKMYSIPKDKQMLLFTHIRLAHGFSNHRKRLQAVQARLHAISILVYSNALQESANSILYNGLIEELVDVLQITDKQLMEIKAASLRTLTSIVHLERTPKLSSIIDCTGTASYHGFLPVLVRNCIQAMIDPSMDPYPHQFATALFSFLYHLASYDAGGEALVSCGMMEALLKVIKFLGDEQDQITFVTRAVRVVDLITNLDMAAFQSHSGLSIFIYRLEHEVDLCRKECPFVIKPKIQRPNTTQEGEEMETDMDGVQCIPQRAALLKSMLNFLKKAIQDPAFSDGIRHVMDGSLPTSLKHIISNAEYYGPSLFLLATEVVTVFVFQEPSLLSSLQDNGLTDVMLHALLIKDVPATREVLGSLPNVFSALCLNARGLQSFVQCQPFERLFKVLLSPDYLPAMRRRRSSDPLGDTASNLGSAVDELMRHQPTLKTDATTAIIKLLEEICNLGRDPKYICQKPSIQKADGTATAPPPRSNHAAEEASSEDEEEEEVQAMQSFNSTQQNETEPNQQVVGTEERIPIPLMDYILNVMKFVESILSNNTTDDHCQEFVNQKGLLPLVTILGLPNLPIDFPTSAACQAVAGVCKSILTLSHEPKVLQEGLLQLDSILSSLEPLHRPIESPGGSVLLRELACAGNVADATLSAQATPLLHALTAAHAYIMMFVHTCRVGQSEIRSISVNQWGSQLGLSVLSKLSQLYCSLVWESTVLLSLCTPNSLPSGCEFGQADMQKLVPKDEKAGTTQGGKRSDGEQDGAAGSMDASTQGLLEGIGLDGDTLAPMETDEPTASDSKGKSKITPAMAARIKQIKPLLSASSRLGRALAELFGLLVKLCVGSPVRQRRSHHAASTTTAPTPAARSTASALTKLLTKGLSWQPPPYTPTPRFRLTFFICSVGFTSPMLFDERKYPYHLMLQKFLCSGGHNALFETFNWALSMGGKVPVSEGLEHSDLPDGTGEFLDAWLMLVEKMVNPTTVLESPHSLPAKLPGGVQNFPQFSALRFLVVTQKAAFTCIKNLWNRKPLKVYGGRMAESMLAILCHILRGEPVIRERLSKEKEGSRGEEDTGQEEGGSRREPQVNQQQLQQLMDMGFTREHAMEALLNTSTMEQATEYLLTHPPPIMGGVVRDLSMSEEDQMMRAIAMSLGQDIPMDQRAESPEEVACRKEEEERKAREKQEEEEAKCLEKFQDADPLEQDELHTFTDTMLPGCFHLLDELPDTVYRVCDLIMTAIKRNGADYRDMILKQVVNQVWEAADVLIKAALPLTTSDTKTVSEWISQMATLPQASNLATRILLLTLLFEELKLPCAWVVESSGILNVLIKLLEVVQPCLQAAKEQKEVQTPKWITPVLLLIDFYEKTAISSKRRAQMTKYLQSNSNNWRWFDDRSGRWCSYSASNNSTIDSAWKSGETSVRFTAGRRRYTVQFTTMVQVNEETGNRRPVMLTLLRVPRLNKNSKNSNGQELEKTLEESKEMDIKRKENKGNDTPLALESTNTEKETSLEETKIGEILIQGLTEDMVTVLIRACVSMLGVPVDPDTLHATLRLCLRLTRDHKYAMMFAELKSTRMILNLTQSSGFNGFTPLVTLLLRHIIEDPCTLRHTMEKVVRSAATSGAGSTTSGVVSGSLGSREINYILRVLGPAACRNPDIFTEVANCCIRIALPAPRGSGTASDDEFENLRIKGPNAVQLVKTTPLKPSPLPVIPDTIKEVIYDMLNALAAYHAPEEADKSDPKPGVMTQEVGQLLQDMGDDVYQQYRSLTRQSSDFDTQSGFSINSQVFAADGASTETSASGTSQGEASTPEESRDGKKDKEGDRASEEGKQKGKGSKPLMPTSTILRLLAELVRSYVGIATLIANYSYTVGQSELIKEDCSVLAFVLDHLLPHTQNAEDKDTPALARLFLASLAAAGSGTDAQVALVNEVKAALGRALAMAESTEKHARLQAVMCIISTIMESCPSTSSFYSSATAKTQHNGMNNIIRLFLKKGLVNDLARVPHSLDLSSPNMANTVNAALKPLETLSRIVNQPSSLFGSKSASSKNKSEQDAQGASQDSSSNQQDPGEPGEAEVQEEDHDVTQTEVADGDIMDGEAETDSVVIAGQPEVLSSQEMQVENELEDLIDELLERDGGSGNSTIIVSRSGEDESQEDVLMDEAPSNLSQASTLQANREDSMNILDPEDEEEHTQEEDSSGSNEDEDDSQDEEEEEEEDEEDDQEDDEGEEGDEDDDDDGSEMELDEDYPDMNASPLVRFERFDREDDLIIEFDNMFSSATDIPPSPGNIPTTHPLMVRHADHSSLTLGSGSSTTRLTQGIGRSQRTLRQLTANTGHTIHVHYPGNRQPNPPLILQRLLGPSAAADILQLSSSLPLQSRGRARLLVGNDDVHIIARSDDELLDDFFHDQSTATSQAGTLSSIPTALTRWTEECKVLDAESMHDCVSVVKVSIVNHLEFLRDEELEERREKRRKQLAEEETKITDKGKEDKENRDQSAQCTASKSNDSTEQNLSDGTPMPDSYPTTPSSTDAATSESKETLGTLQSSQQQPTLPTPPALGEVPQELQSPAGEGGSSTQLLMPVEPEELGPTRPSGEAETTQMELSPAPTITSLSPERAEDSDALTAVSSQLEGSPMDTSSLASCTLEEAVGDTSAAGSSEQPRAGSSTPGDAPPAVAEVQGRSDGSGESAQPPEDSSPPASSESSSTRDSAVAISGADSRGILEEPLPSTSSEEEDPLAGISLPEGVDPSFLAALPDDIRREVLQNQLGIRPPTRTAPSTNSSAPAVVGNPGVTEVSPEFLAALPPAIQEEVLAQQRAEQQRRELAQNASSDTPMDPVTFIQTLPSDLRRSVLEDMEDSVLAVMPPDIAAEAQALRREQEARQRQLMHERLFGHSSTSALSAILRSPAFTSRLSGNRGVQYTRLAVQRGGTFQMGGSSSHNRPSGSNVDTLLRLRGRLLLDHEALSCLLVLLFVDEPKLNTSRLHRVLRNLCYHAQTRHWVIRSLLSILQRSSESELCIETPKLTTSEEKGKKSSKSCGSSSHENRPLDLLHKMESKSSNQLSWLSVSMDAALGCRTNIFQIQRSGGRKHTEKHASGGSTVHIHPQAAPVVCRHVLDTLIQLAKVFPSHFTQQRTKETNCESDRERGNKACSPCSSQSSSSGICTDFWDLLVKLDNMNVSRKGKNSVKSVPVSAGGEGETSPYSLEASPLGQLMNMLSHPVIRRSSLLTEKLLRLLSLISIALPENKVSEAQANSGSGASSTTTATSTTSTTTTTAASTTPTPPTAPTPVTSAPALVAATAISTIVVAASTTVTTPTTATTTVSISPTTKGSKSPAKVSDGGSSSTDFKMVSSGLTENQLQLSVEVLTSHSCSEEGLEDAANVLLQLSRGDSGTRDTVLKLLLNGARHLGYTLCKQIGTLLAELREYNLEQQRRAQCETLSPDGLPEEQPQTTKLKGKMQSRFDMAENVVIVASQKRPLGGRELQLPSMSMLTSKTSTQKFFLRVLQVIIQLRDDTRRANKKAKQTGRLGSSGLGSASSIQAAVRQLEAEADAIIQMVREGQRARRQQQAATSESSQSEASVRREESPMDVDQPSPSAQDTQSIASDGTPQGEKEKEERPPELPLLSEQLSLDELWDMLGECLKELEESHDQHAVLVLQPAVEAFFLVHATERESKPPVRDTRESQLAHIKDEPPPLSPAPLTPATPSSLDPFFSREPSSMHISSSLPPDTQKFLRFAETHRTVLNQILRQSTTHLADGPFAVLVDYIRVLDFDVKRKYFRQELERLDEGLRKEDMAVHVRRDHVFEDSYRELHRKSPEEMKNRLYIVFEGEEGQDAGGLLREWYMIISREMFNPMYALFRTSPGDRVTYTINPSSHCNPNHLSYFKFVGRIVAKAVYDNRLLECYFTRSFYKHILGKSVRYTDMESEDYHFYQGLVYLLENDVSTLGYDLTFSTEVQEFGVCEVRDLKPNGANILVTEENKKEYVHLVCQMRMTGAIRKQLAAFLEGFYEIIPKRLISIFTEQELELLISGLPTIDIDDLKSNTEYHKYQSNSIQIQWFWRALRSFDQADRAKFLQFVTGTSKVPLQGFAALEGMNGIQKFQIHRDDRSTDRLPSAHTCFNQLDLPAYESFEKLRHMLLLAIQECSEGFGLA

T1: Flag-JMJD1A K918R (UniProt Q9Y4C1)
T1 sequence: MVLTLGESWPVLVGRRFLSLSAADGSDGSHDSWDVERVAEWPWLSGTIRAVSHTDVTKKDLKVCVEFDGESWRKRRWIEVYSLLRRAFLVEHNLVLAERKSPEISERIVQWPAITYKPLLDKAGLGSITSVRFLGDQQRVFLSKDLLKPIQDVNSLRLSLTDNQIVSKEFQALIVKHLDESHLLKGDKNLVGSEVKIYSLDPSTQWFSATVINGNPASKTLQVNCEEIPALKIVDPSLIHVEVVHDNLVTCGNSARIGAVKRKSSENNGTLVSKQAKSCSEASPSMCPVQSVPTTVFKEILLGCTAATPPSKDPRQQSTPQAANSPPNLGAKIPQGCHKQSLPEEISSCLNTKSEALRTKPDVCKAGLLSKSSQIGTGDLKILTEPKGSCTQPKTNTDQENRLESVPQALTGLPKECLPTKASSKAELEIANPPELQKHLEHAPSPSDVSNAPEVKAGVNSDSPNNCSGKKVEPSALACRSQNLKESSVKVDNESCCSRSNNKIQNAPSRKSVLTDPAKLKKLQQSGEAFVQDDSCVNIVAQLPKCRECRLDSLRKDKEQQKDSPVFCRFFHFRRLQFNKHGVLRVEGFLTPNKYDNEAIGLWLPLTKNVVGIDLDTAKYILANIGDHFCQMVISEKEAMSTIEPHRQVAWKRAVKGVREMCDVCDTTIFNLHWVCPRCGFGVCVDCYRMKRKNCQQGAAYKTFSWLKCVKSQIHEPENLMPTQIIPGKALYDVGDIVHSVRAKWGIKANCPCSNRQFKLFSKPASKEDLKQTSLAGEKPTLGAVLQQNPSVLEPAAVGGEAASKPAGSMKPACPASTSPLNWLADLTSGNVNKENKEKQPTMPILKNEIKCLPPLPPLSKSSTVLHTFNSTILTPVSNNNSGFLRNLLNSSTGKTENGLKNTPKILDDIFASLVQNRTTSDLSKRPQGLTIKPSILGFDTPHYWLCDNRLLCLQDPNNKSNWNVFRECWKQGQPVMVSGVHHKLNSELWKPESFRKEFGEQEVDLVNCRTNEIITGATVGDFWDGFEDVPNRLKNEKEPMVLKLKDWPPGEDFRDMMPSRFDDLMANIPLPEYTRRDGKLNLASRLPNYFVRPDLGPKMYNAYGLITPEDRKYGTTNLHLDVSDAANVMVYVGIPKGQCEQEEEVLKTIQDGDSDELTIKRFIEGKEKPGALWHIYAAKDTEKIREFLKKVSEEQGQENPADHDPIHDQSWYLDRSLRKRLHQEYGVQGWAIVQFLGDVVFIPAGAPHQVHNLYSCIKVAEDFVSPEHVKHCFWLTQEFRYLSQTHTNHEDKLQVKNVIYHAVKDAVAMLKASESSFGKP

T2: Flag-JMJD1A (WT) (UniProt Q9Y4C1)
T2 sequence: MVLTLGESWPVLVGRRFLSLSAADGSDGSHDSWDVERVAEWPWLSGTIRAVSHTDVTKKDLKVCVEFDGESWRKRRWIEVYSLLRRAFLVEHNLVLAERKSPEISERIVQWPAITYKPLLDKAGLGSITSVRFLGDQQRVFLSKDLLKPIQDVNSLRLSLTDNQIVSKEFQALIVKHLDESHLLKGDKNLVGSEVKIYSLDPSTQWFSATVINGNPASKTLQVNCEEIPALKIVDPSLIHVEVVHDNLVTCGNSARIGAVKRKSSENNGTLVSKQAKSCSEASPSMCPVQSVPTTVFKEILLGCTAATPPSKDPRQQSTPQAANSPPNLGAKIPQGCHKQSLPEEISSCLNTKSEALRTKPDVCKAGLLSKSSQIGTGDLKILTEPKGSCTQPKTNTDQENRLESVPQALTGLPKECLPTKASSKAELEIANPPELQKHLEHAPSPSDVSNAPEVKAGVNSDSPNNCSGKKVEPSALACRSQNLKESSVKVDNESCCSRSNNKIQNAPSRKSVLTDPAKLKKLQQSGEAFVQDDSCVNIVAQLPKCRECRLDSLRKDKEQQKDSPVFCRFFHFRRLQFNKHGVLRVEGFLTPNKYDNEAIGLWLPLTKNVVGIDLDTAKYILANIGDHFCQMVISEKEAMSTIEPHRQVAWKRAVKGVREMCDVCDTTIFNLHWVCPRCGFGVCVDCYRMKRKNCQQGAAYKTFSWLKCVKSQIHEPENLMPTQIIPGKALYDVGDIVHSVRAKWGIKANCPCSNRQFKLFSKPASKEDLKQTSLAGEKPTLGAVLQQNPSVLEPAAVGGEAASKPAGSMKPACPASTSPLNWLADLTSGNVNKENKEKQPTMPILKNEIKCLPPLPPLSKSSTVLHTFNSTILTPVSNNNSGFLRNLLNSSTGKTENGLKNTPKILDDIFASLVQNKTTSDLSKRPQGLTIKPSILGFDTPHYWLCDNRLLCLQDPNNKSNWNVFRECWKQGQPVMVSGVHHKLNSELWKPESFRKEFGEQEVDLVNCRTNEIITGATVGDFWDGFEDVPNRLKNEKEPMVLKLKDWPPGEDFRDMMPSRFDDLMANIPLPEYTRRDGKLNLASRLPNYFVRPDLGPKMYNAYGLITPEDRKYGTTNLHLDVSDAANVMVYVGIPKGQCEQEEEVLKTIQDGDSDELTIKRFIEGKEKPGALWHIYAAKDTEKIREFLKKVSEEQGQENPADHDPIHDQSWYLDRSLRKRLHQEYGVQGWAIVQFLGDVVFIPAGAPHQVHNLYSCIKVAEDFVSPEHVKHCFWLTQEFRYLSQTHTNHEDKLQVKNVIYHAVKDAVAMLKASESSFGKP


Tests used:
Experiment in all cases: co-IP; tagged proteins coexpressed in 293T cells; lysates immunoprecipitated with anti-Flag M2 beads; western blot for the tags
Flag-JMJD1A K918R = molecular target: T1, Flag-JMJD1A K918R
Flag-JMJD1A (WT) = molecular target: T2, Flag-JMJD1A (WT)
Flag-c-Myc = Flag-c-Myc (UniProt P01106)
Flag-Max = Flag-Max (UniProt P61244)
Flag-c-Myc ΔN (144-439) = Flag-c-Myc ΔN (144-439) (UniProt P01106)
Flag-c-Myc ΔC (1-355) = Flag-c-Myc ΔC (1-355) (UniProt P01106)

| Molecule | binding (Flag-JMJD1A K918R) | binding (Flag-JMJD1A (WT)) | binding (Flag-c-Myc) | binding (Flag-Max) | binding (Flag-c-Myc ΔN (144-439)) | binding (Flag-c-Myc ΔC (1-355)) |
| --- | --- | --- | --- | --- | --- | --- |
| GFP-HUWE1 (from UniProt Q7Z6Z7 1-4374) (enzyme) | binds | binds | – | – | – | – |
| myc-JMJD1A (protein, UniProt Q9Y4C1 1-1321) MVLTLGESWPVLVGRRFLSLSAADGSDGSHDSWDVERVAEWPWLSGTIRAVSHTDVTKKDLKVCVEFDGESWRKRRWIEVYSLLRRAFLVEHNLVLAERKSPEISERIVQWPAITYKPLLDKAGLGSITSVRFLGDQQRVFLSKDLLKPIQDVNSLRLSLTDNQIVSKEFQALIVKHLDESHLLKGDKNLVGSEVKIYSLDPSTQWFSATVINGNPASKTLQVNCEEIPALKIVDPSLIHVEVVHDNLVTCGNSARIGAVKRKSSENNGTLVSKQAKSCSEASPSMCPVQSVPTTVFKEILLGCTAATPPSKDPRQQSTPQAANSPPNLGAKIPQGCHKQSLPEEISSCLNTKSEALRTKPDVCKAGLLSKSSQIGTGDLKILTEPKGSCTQPKTNTDQENRLESVPQALTGLPKECLPTKASSKAELEIANPPELQKHLEHAPSPSDVSNAPEVKAGVNSDSPNNCSGKKVEPSALACRSQNLKESSVKVDNESCCSRSNNKIQNAPSRKSVLTDPAKLKKLQQSGEAFVQDDSCVNIVAQLPKCRECRLDSLRKDKEQQKDSPVFCRFFHFRRLQFNKHGVLRVEGFLTPNKYDNEAIGLWLPLTKNVVGIDLDTAKYILANIGDHFCQMVISEKEAMSTIEPHRQVAWKRAVKGVREMCDVCDTTIFNLHWVCPRCGFGVCVDCYRMKRKNCQQGAAYKTFSWLKCVKSQIHEPENLMPTQIIPGKALYDVGDIVHSVRAKWGIKANCPCSNRQFKLFSKPASKEDLKQTSLAGEKPTLGAVLQQNPSVLEPAAVGGEAASKPAGSMKPACPASTSPLNWLADLTSGNVNKENKEKQPTMPILKNEIKCLPPLPPLSKSSTVLHTFNSTILTPVSNNNSGFLRNLLNSSTGKTENGLKNTPKILDDIFASLVQNKTTSDLSKRPQGLTIKPSILGFDTPHYWLCDNRLLCLQDPNNKSNWNVFRECWKQGQPVMVSGVHHKLNSELWKPESFRKEFGEQEVDLVNCRTNEIITGATVGDFWDGFEDVPNRLKNEKEPMVLKLKDWPPGEDFRDMMPSRFDDLMANIPLPEYTRRDGKLNLASRLPNYFVRPDLGPKMYNAYGLITPEDRKYGTTNLHLDVSDAANVMVYVGIPKGQCEQEEEVLKTIQDGDSDELTIKRFIEGKEKPGALWHIYAAKDTEKIREFLKKVSEEQGQENPADHDPIHDQSWYLDRSLRKRLHQEYGVQGWAIVQFLGDVVFIPAGAPHQVHNLYSCIKVAEDFVSPEHVKHCFWLTQEFRYLSQTHTNHEDKLQVKNVIYHAVKDAVAMLKASESSFGKP | – | – | binds | no binding | no binding | binds |
